We go through one compound from PMC4997316, “A ruthenium polypyridyl intercalator stalls DNA replication forks, radiosensitizes human cancer cells and is enhanced by Chk1 inhibition” (Scientific Reports, 2016).

The data set in a line: octanol/water partition coefficient (Log P).

`O=C1c2c(O)ccc(O)c2C(=O)c2c(NCCNCCO)ccc(NCCNCCO)c21` [MX, mitoxantrone] yielded a logP of 0.36.

As usually defined, the logP is a log measure of how a compound divides between an organic and an aqueous phase. Read a high logP as a more lipophilic compound.
